No constants are given. Whether binding was seen depends on the method and setting. In cells and extracts the contact can be indirect. Some binding calls cover weakened binding; strength is not graded here. Sequences can lack the tags named with a protein.
Biological target: T1, HA-HDAC8 (histone deacetylase 8) (UniProt Q9BY41)
T1 sequence: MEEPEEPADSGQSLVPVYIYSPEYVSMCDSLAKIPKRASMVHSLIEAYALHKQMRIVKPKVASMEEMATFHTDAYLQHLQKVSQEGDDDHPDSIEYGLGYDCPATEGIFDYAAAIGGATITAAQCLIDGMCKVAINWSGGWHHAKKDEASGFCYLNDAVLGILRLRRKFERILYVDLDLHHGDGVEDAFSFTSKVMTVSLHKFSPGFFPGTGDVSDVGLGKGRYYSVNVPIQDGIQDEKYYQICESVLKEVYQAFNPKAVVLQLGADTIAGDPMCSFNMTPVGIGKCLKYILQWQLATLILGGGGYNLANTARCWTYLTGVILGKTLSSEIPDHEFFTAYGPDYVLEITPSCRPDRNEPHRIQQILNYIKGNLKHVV
Test: co-IP; HEK293T co-transfected with HA- and Flag-tagged proteins, 48 h; lysate with anti-HA beads overnight at 4 °C; western blot with Flag and HA antibodies

Chains of the proteins cited; added tags and fusions are not shown.
UniProt P14618: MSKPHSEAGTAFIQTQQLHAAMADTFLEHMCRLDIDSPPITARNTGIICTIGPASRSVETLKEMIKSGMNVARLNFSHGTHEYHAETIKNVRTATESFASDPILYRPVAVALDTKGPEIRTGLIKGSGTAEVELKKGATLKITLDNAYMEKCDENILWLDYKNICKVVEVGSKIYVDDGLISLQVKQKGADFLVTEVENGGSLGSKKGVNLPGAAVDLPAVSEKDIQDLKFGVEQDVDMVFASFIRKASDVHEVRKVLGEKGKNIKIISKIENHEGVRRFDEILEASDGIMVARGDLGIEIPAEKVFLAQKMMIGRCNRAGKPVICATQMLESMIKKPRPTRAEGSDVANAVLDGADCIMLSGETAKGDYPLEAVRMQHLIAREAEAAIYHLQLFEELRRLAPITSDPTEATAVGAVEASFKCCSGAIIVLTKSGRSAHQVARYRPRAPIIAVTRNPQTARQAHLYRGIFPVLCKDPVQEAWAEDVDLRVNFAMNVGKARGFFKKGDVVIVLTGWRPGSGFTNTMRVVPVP

binding: binds
Substance: Flag-PKM2 (pyruvate kinase M2) (from UniProt P14618 1-531) (enzyme)
